Library screening results

Amino acid sequences for entries named in this document (tags omitted).
UniProt E9BF75, entry or part of it: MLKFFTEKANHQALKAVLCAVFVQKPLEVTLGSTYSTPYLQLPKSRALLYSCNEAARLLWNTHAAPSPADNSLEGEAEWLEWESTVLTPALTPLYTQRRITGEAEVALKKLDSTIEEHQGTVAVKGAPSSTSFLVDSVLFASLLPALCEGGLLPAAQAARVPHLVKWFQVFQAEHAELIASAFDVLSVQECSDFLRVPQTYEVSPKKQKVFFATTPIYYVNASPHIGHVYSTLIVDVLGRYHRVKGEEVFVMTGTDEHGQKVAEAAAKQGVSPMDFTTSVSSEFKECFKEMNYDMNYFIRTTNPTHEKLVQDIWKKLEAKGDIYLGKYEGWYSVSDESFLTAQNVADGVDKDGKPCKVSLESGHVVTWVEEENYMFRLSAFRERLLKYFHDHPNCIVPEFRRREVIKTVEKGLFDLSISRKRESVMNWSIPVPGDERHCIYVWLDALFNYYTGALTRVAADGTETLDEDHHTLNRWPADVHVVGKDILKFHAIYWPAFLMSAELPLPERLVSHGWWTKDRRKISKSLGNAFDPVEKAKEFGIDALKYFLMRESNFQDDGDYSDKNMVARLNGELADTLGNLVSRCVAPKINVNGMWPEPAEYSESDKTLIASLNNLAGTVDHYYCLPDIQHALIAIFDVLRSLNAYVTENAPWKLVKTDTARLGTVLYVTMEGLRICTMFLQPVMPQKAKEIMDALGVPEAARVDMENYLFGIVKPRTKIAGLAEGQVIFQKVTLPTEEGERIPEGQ

The values are deposited in ChEMBL (CHEMBL3988442, “University of Dundee, Small-Polar-MMV Screening Library” (2021)).

All values are in %. How 0% and 100% were set is not recorded. Most values in the screen are low, and negative values occur. This is an unselected part of the compounds tested. A dash means the value is not listed here; it may have been measured.

LdMetRS: 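Primary screen of methionyl-tRNA synthetase; the read-out is not stated. Target: Methionyl-tRNA synthetase (putative), Leishmania donovani (UniProt E9BF75). The test concentration is not given. Values are per cent inhibition. Of about 68,000 compounds tested this way, about 24 (0.035%) reached 50% or more in at least one test.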
Mtb heat-shock: 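Assay on Mycobacterium tuberculosis, filed only as a heat shock assay from Cornell; the read-out is not stated. The concentration is filed as 10 mM, unlikely as a test dose, so the dose is not known. Higher reads as stronger inhibition (inferred: compounds with an IC50 in retests scored well above the rest). Of about 69,000 compounds tested this way, about 930 (1.4%) reached 50% or more in at least one test.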

structure	LdMetRS	Mtb heat-shock
Cc1ccc(CNC(=O)c2ccc(S(=O)(=O)N3C[C@@H]4C[C@H]3CN4)cc2)o1	10.94	-
Cc1nn(C)c(C)c1CCC(=O)N1CCCC(n2cncn2)C1 (stereo not given)	17.05	-15.58
Cc1[nH]ncc1CCCNC(=O)N1CCC(C(N)=O)CC1	11.96	9.308
O=C(NCCN1CCOCC1)c1ccnn1-c1ccc2ccccn12	2.536	-
Cc1nc(-c2cccc(Cl)c2)n(CC(=O)NCC2CCCO2)c(=O)c1C (stereo not given)	19.11	-34.71
Cc1cccc(NC(=O)C2CCCN2C(=O)c2ccco2)c1C (stereo not given)	0.3745	-33.95
O=C(c1cc2c(s1)CCC2)N1CCC(c2ccncc2)CC1	10.76	15.41
CC(C)c1sc(Cl)nc1C(=O)N1CCN(c2ccccc2)CC1	4.533	-14.79
O=C(O)C(F)(F)F.O=S1(=O)NCC2(CCNCC2)COc2ccccc21	-	-15.36
CCOc1ccc(CN2CCC3(CC2)CNC(=O)C3)cn1	11.5	10.71
Cc1cc(CN(C)C(=O)NC2CCN(C3CC3)CC2)no1	21.2	4.969
Cn1ccnc1CN1CCC(F)(F)C2(CCN(c3cnccn3)C2)C1.O=C(O)C(F)(F)F (stereo not given)	-	-35.69
COc1ccc(CNC(=O)c2nc3c(s2)CCN(C(C)=O)CC3)cc1	15.92	-11.1
Clc1cccc(-n2cnnn2)c1N1CCCC1	2.089	-28.03
CC(C)Cc1ncc2c(n1)CN(c1cc(N3CCCC3)nc(N)n1)C2	-14.5	-2.013
c1coc(-c2nc(CNC3CCCNC3)no2)c1 (stereo not given)	24.61	-3.431
CCCC(=O)NC1CCc2c(ccc(=O)n2Cc2csc(C)n2)C1.O=C(O)C(F)(F)F (stereo not given)	-	46.41
c1ccc(C2(CNCc3cnc(N4CCOCC4)nc3)CC2)cc1	30.02	8.585
O=C1CO[C@@H]2CN(CC3CC3)C[C@H]2N1Cc1cccc(F)c1	7.302	-
Cc1ccc(C(=O)Nc2ccc(N3CCCC3)cn2)cc1C	5.072	24.05
Cc1c(Cl)c(C(F)(F)F)nn1C(C)C(=O)NC1CCN(C)CC1 (stereo not given)	6.203	10.65
CC(C)N(CC(N)=O)Cc1csc(Cc2ccccc2)n1	8.92	11.54
Cn1nc(C(=O)NC2CC2)cc1NC(=O)C1CC1	15.79	-30.68
Cn1cc(CN2CCC[C@]3(C[C@H](Oc4ccccn4)CO3)C2)cn1	14.84	10.05
Cc1ccc(N2CCC(C(O)Cc3ccccc3)CC2)nn1 (stereo not given)	11.72	-7.901
O=C(NCCCc1nc(=O)[nH][nH]1)Nc1ccc(Cl)cc1	14.24	12.77
Cn1nc(C#N)c2c1CN(C(=O)c1ccnnc1)CCC2	0	-0.9295
Cc1ccc(-c2nc(CN3CCN(S(=O)(=O)N(C)C)CC3)cs2)o1	11.11	-8.735
O=C(C1CCCO1)N1CCCn2c(nnc2Cn2ccnc2)C1.O=C(O)C(F)(F)F (stereo not given)	-	-0.4698
Cc1ccc(C(=O)NS(=O)(=O)c2ccccc2F)c(=O)[nH]1	7.821	2.237
Cl.Cn1cc([C@@H]2CN(S(=O)(=O)c3cccs3)C[C@H]2N)c2ccncc21	-	-1.274
Cc1ccc(CC(=O)NCCCNS(C)(=O)=O)cc1	13.19	1.525
CNC(=O)CCS(=O)(=O)Cc1cc(Cl)c2c(c1)OCCO2	24.51	-10.08
Cc1c(NCc2cccc(C#N)c2)cccc1S(=O)(=O)NC1CC1	14.93	50.22
CC(NC(=O)Nc1cnn(CC(N)=O)c1)c1ccc(Cl)s1 (stereo not given)	13.77	4.935
O=C(O)CC(NC(=O)c1cc(Br)c[nH]1)c1ccccc1 (stereo not given)	15.24	9.435
O=C(O)C(F)(F)F.O=C(O)C(F)(F)F.[H][C@@]12CN(Cc3ccc(OC)cc3)C[C@]1([H])OCCN2c1ncccn1	-	7.99
COCCOc1ncccc1C(=O)N1CCCC(n2ccnc2C)C1 (stereo not given)	21.02	13.4
CCCN1CCCn2c(nc(CNC(=O)c3cnoc3C)cc2=O)C1	12.5	-
CCc1nc(C2CCCN2Cc2nnc(C3CC3)o2)no1 (stereo not given)	17.46	-4.921
O=C(C1CC1)N1C[C@@H](F)[C@@H](OCc2nc3ccccc3[nH]2)C1	5.763	-21.78
O=C(c1cccc(-c2ncc[nH]2)c1)N1CCC(N2CCCC(O)C2)CC1 (stereo not given)	16.32	5.306
CC(C)c1nc(O)c2nnn(C[C@@H]3CCCN(Cc4ccsc4)C3)c2n1	12.07	3.606
CCn1cc(CN2CCCN(C(=O)C3=NN(C)C(=O)CC3)CC2)cn1	9.722	-18
Cc1cccc(OCCN2CCC(c3ccnn3CCO)CC2)c1	25.14	-17.29
[H][C@]12CCCN(S(=O)(=O)c3ccc(Cl)s3)[C@@]1([H])CN(C(=O)C1CC1)C2	-	-22.29
CC(C)NC(=O)CCCn1cnc2ccccc2c1=O	-1.075	-8.553
Cn1nc(CN2CCCC2)c2c1CN(c1cnccn1)CC2	1.558	-
O=C(c1ccnnc1)N1C[C@@H](OCC2CCCC2)[C@H]2OCCC[C@H]21	19.05	-
Cn1ncc2c1NC(=O)CC2c1ccc(O)cc1 (stereo not given)	9.63	-6.036
NC(=O)C1CN(C(=O)Nc2ccccc2Oc2ccccc2Cl)CCO1 (stereo not given)	21.67	-4.408
Cc1nn(CCO)cc1CN1CCCN(C2CCCC2)CC1	10.31	2.752
c1csc(COC[C@H]2CCC[C@]23CN(Cc2ccoc2)CCO3)n1	17.91	8.85

For reference, 6 entries once more:

structure	LdMetRS	Mtb heat-shock
Cc1cc(CN(C)C(=O)NC2CCN(C3CC3)CC2)no1	21.2	4.969
Cc1c(NCc2cccc(C#N)c2)cccc1S(=O)(=O)NC1CC1	14.93	50.22
O=C1CO[C@@H]2CN(CC3CC3)C[C@H]2N1Cc1cccc(F)c1	7.302	-
O=C(NCCN1CCOCC1)c1ccnn1-c1ccc2ccccn12	2.536	-
Cn1cc(CN2CCC[C@]3(C[C@H](Oc4ccccn4)CO3)C2)cn1	14.84	10.05
CCn1cc(CN2CCCN(C(=O)C3=NN(C)C(=O)CC3)CC2)cn1	9.722	-18